# At least one structure is not confirmed: it was looked up by name or label, or the drawing left a doubt.
# Key:
# [1] = test system: SKMG3 parental cells and enhancer deletion clones; assay: Clonogenic assay of TMZ sensitivity; type: cell-based, human; conditions: SKMG3 cells with the 1.5 kb (Del1) deletion versus parental
# Experimental: Cell viability was determined using clonogenic assay.
# FIG. 5F is a summary of TMZ IC50 in SKMG3 clones with or without O6BG pre-treatment.
# Clonogenic assays were performed to assess the effect of disrupted enhancer on TMZ sensitivity. Briefly, SKMG3 parental cells and enhancer deletion clones were plated in 6 wells plates (250 cells/well), treated with graded concentration of TMZ in presence or absence of O6BG and were cultured for 2 weeks. Colonies were fixed and stained with crystal violet (0.005% (w/v) Crystal violet, 25% (v/v) Methanol). Colonies with >50 cells were manually counted, IC50 calculated by GraphPad Prism 7 using multiparametric nonlinear regression model.
# GBM cells (3080) = assay: Neurosphere formation assay of TMZ sensitivity; type: cell-based, human; conditions: 3080 Del1 deleted cells versus 3080 parental, in vitro
# [2] = test system: GBM12 xenograft sublines 5199 and 3080; assay: TMZ response of GBM12 patient-derived xenograft sublines; type: in vivo, mice
compound,measurement,setting,value
"Cn1nnc2c(C(N)=O)ncn2c1=O [TMZ, temozolomide]",TMZ sensitivity,[1],"increased TMZ sensitivity, but to lesser degree than deletion clones with the 3.3 kb region"
same,TMZ sensitivity,GBM cells (3080),increased TMZ sensitivity in vitro
same,susceptibility to TMZ,[2]; 3080 line from the TMZ treatment group,TMZ-resistant
same,susceptibility to TMZ,[2]; placebo-treated 5199 line,highly susceptible to TMZ

# Source: US20210060006A1, “COMPOSITIONS AND METHODS FOR TREATING GLIOBLASTOMA BY MODULATING A MGMT ENHANCER” (The Trustees of Columbia University in the City of New York, priority 2018, published 2021)
